Experimental data from US6759431B2, “Compositions and methods for treating or preventing diseases of body passageways” (Angiotech Pharmaceuticals, Inc., priority 1996, dated 2004).

Assay: Solubility of paclitaxel in cyclodextrin solutions
Format: physicochemical
Conditions: 50% solution of HPβCD in water, 37° C.

solubility of paclitaxel: 3200 µg/mL
SMILES: CC(=O)O[C@H]1C(=O)[C@@]2(C)[C@H]([C@H](OC(=O)c3ccccc3)[C@]3(O)C[C@H](OC(=O)[C@H](O)[C@@H](NC(=O)c4ccccc4)c4ccccc4)C(C)=C1C3(C)C)[C@]1(OC(C)=O)CO[C@@H]1C[C@@H]2O [paclitaxel]
